Laboratory results taken from PubChem BioAssay AID2718 (Broad Institute, 2010).
Among all 320,000 compounds or so, about 480 (0.15%) were called active. The inconclusive results got no clear call from the source; some entries with a clear call stand among them for comparison. Cut-off read from the data, not from the text of the source: active = inhibition above about 26% (passing the limit was not always enough); inconclusive = no clear call, values can overlap the other calls.

Chains of the proteins cited; added tags and fusions are not shown. Lines headed by an entry give the natural chain unless they say otherwise; changes in a name come on top.
UniProt O15379: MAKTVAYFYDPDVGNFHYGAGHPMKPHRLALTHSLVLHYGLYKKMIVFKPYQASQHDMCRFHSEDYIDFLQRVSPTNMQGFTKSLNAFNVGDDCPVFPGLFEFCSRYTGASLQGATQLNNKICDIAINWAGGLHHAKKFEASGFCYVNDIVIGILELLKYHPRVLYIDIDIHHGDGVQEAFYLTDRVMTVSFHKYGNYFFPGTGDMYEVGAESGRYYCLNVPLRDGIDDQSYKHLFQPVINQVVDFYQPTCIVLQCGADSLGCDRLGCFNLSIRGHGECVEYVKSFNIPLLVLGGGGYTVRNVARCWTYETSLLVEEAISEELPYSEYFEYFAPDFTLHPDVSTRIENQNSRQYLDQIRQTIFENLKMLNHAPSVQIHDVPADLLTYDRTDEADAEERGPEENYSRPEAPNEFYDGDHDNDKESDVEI

Each compound was assayed against Histone deacetylase 3 (Homo sapiens) (UniProt O15379) (assay: HDAC3 deacetylase inhibitors, primary screen, biochemical, fluorescence, cell-free homogeneous (AID 2718)). Conditions: recombinant HDAC3, fluorogenic peptide/trypsin coupled, at 8.3 µM, hits give high values.

Compound	inhibition
Cc1cc(NC(=O)NC2(C(F)(F)F)Oc3ccc(Cl)cc3O2)no1 (stereo not given)	inconclusive: 19.4%
Cc1ccc(S(=O)(=O)N2CCN(C(=O)COC(=O)Cc3cccc(C(F)(F)F)c3)CC2)c(C)c1	inconclusive: 17.6%
Cc1ccc2c(c1)CCCN2C(=O)C1CCCO1 (stereo not given)	inactive: -6.36%
O=C(Nc1ccccn1)c1ccc(C(=O)Nc2ccccn2)cc1	inactive: 4.67%
CCOc1ccc(-n2c(C)cc(/C=N/N(C)C)c2C)cc1	inconclusive: 21%
O=C(Nc1ccccc1O)c1ccc2c(c1)C(=O)N(Cc1ccco1)C2=O	active: 40.8%
CCCN(CCC)Cc1c(C(=O)N/N=C/c2ccsc2)nnn1-c1nonc1N	inconclusive: 20%
CC(=O)Nc1ccc(N2C(=O)CC(Sc3nccc(C)n3)C2=O)cc1 (stereo not given)	inconclusive: 17.4%
COc1cc(OC)cc(C(=O)NCC(=O)OCC(=O)NCc2ccco2)c1	active: 33%
Cc1ccc(S(=O)(=O)Nc2ccc(N3CCN(C)CC3)nc2)cc1	inconclusive: 21.8%
c1ccc(-c2nc(CSc3nnc(-c4cccs4)o3)cs2)cc1	inactive: -2.71%
COc1ccc(N2CCN(C(=O)NCc3ccc(OC)c(Cl)c3)CC2)cc1	inconclusive: 24.3%
C=CCNc1ccc(N2C(=O)CCCC2=O)cc1[N+](=O)[O-]	inconclusive: 32.4%
COc1cc(/C=C/C(=O)O)cc(S(=O)(=O)Nc2cccc(SC)c2)c1OC	inconclusive: 13.3%
Cc1cc(C(=O)O)ccc1-n1c(C)cc(/C=C2\SC(=O)NC2=O)c1C	inconclusive: 22.5%
COc1ccc(NC(=S)NNC(=O)c2ccco2)c(OC)c1	inactive: -1.15%
Cc1ccc(C(=O)CSc2nc3cccnc3n2C)cc1	inconclusive: 27.3%
O=C1NN(c2cccc(Br)c2)C(=O)/C1=C/c1ccc(-c2cc([N+](=O)[O-])ccc2O)o1	inactive: -7.25%
CC(C)C(c1nnnn1C1CCCC1)N1CCC(C(N)=O)CC1 (stereo not given)	inconclusive: 16%
Fc1ccc(-c2csc(=S)[nH]2)cc1	inconclusive: 22.5%
Cc1ccc(NC(=O)NC(=O)N(C(C)C)S(C)(=O)=O)nc1	inactive: -8.01%
CNc1c([N+](=O)[O-])cnn1-c1ccc(C)cc1	inactive: -11.9%
O=C(O)CC12CC3CC(C1)CC(n1ncc(NCc4ccccc4Cl)c(Cl)c1=O)(C3)C2	inactive: 1.65%

Quoted at random: 2 compounds from above.
Compound	inhibition
O=C(Nc1ccccc1O)c1ccc2c(c1)C(=O)N(Cc1ccco1)C2=O	active: 40.8%
Cc1ccc(C(=O)CSc2nc3cccnc3n2C)cc1	inconclusive: 27.3%

Later entries

Compound	inhibition
CC(C)C[C@H](NC(=O)c1nc[nH]c1C(=O)NCC(=O)OC(C)(C)C)C(=O)OC(C)(C)C	active: 30.3%
CCOc1ccc2oc(C(=O)Nc3cc(C)ccn3)c(C)c2c1	inconclusive: 18.3%
COc1ccc(NC(=O)c2sc(=S)[nH]c2N)cc1	inconclusive: 21.9%
NCCCCCc1nnc(SCc2cccc(Cl)c2)o1	inconclusive: 15.5%
Oc1ccc(Br)cc1/C=N/Nc1nc(N2CCCCC2)nc(N2CCOCC2)n1	inconclusive: 12.7%
C=CC[C@H](CC(=O)N(CCO)Cc1ccccc1)C(=O)N[C@H](COC(=O)[C@@H](CC=C)CC(=O)OC(C)(C)C)c1ccccc1	inconclusive: 26.3%
O=C(N/N=C/c1cc([N+](=O)[O-])ccc1Cl)c1cnccn1	inconclusive: 8.3%
CCc1cccc(NC(=O)Nc2ccc3c(c2)OCO3)c1	inconclusive: 12.9%
Oc1ccc(-c2csc(Nc3ccccn3)n2)c(O)c1	inconclusive: 23.6%
O=C(Nc1cccc(F)c1)C1CC(=O)N(c2ccc(Cl)cc2)C1 (stereo not given)	inconclusive: 18.4%
O=C(CCCC(=O)OCC(=O)c1ccc(Cl)cc1Cl)Nc1cc(C(F)(F)F)ccc1Cl	inconclusive: 25.7%
Cn1c(SCC(=O)NCc2ccco2)nnc1-c1ccccc1	inactive: 3.84%
CCOC(=O)C1(CCOc2ccccc2)CCN(C(=O)c2cncs2)CC1	inconclusive: 15.7%
COc1ccccc1NS(=O)(=O)c1cc(NC(=O)c2sc3cc(Cl)ccc3c2Cl)ccc1C	inactive: 4.46%
Nc1nonc1-c1noc(COc2ccccc2Cl)n1	inconclusive: 21.3%
CCOC(=O)CSC1=NC(=O)/C(=C/c2ccc(OC)cc2)S1	active: 79.8%
CCCCC(O)(c1ccc(CC)cc1)C(CN1CCOCC1)c1ccccc1 (stereo not given)	inconclusive: 29.1%
CC(=O)OCCN(C)c1cc(SC(C)C)c2nonc2c1[N+](=O)[O-]	inconclusive: 11.8%
Cc1nonc1NC(=O)CSc1cn[nH]n1	inconclusive: 16.6%
CCOC(=O)c1nnn(-c2nonc2-n2cccc2)c1CN1CCOCC1	inconclusive: 28.6%
CC(=O)c1ccc(NC(=O)c2cn(-c3ccccc3)nc2-c2ccncc2)cc1	inactive: -3.21%
O=C(COC(=O)C1COc2ccccc2O1)NC1CCS(=O)(=O)C1 (stereo not given)	inactive: 0.922%
